Results are given in words; binding and its absence hold for the method and conditions named.
What was measured:
[1] = target: yeast tropomyosin Tpm1 (recombinant) (S. cerevisiae) (UniProt P17536); experiment: pull-down; beads coated with Tpm1 or BSA incubated with 50 nM Cof1, Cof1-5 or Cof1-22; bound cofilin shown by immunoblot with yeast cofilin antibody; both purified
[2] = target: bovine serum albumin (bovine) (UniProt P02769); experiment: as above

Sequences of proteins named here, by UniProt entry; tags and fusion partners are left off. A change or cut given only in a name is not applied to a line headed by its entry. A line that says so, or that is headed by a name, gives the form on record, which may keep a tag or linker. Residues count along the entry.
UniProt P02769, residues 25-607: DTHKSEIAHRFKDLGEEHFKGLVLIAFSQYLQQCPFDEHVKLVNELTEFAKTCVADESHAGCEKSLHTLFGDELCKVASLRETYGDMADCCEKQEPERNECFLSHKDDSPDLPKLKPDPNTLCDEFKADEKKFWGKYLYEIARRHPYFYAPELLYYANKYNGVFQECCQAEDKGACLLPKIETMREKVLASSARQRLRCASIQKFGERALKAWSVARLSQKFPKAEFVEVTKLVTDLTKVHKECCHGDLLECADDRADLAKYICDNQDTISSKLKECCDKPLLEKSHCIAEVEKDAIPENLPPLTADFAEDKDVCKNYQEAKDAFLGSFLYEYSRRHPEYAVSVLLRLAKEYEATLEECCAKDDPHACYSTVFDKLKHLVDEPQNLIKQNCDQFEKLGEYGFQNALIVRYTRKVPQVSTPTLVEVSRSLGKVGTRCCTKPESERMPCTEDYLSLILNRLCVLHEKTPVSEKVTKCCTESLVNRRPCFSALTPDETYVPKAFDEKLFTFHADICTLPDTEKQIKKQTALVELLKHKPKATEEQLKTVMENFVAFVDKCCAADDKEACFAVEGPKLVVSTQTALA
UniProt Q03048: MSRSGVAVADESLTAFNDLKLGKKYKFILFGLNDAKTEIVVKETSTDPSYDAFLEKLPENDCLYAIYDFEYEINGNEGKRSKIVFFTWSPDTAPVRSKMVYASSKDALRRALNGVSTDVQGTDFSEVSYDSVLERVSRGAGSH
yeast cofilin mutant Cof1-22 (Q03048, form named): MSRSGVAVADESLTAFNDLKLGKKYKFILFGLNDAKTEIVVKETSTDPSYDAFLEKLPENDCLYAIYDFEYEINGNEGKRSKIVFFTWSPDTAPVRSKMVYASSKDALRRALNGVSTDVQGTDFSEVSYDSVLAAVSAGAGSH

Row | binding [1] | binding [2] | Substance
1 | no binding (tested: 50 nM) |  | yeast cofilin mutant Cof1-22 (from UniProt Q03048 1-143)
2 |  | no binding (tested: 50 nM) | yeast cofilin Cof1 (recombinant, wild type) (from UniProt Q03048 1-143)

From paper PMC2572843
